Data on one substance can be found in PMC8191293.

Amino acid sequences for entries named in this document (tags omitted).
UniProt P61619: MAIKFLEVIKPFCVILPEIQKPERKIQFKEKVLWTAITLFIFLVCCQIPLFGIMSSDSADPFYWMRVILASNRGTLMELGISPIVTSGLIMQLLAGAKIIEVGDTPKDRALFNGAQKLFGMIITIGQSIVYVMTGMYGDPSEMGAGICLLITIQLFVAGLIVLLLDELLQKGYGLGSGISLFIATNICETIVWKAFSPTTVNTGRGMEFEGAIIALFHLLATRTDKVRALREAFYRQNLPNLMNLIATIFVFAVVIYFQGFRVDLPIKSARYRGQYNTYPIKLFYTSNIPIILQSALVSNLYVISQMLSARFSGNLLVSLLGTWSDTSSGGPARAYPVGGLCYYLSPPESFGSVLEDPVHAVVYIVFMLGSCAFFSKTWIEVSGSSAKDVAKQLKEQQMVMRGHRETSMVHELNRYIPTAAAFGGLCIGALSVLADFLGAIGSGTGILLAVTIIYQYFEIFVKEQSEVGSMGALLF

These are yes or no findings as the source states them, for the method shown. In cells and extracts the contact can be indirect. Some binding calls cover weakened binding; strength is not graded here. Tags and fused reporters may be left off the sequences shown.

This assay has as its target T1, L16P PMP22 (Charcot-Marie-Tooth disease variant), myc-tagged (human) (UniProt Q01453).
T1 sequence (chain, N-linked glycan at N41 (80 ± 2% of L16P PMP22 was glycosylated in HEK293 cells)): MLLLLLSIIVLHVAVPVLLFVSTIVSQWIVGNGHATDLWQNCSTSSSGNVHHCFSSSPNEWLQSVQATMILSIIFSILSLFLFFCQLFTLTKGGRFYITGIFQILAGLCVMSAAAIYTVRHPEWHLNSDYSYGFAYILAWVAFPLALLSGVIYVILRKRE
In words: co-sedimentation; sucrose density fractionation of HEK293 cell lysates on a 0% to 60% step-wise gradient, 200,000g, 4 h, 4 °C; fractions analysed by Western blotting for PMP22 and Sec61α. (Immunoblotting shows a protein as a band on a membrane.)

As to “Sec61α subunit of the translocon (from UniProt P61619 1-476)”, the binding result is “binds”.
